# Primary screen of a compound library

T. brucei: 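Whole-parasite assay of Trypanosoma brucei over 72 hours; the read-out is not stated. Compounds at 30 µM. Direction is inferred from retests: higher values go with stronger inhibition. Values scatter widely below zero; nearly all retest evidence comes from the higher of the two concentrations used. About 64,000 compounds were tested under these conditions; 1.5% (about 940) showed 50% or more at least once.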
Toxoplasma: 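Assay of Toxoplasma gondii numbers, read through their beta-galactosidase reporter with a colour substrate. Compounds at 10 µM. Higher reads as fewer parasites (inferred from which compounds were picked for retests). About 67,000 compounds were tested under these conditions; 0.38% (about 260) showed 50% or more at least once.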
Leishmania in macrophages: 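Cell assay of Leishmania donovani living inside macrophages; the read-out is not stated. Tested at 30 µM. Higher reads as stronger inhibition (inferred: compounds with an IC50 in retests scored well above the rest). About 69,000 compounds were tested under these conditions; 1.5% (about 1,000) showed 50% or more at least once.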

Values are the deposited “Percent Effect”, in %.
How 0% and 100% were set is not recorded. Most values in the screen are low, and negative values occur.
This is an unselected part of the compounds tested.
A dash means the value is not listed here; it may have been measured.

SMILES,T. brucei,Toxoplasma,Leishmania in macrophages
CC(C)c1nc(C2CCCN(C(=O)CCn3cncn3)C2)no1 (stereo not drawn),-5.066,-9.098,13.68
COC(=O)c1c(C(F)(F)F)cnc(OC)c1Cl,-,4.737,18.82
OCCNC1CSCCc2ccccc21 (stereo not drawn),-14.25,1.622,-15.97
O=C(CN1CCOCC1)N1CCC2(CCCN(C3CCOCC3)C2=O)C1 (stereo not drawn),-10.41,-23.55,-15.82
Cn1cc(-c2ncc3c(c2C(=O)O)CCN(CC2CCOC2)C3)cn1 (stereo not drawn),-28.45,10.29,30.23
Cc1ccc(C(=O)NCCS(C)(=O)=O)c(=O)[nH]1,5.253,10.24,0.9196
N#Cc1c(F)cccc1N1CCN(C(=O)Nc2nncs2)CC1,-15.1,2.566,50.08
CC(C)C1COC2(CCN(Cc3ccco3)CC2)C1.O=C(O)C(F)(F)F (stereo not drawn),-21.52,-30.92,-12.51
CCC(=O)Nc1ccc2c(c1)CN(C(=O)c1ccco1)CC2,-15.47,-2.55,-37.51
Cc1nc(S(=O)(=O)N2CCC3(CCCCC3)C2)cn1C,1.365,-5.09,-11.17
CC(Cn1cnc2cn(C)nc2c1=O)Oc1cccnc1 (stereo not drawn),4.844,-7.439,2.817
O=C(CCCNc1ncccn1)N1CCCC(n2cncn2)C1 (stereo not drawn),-17.99,7.078,8.327
FC(F)(F)Cn1ccnc1CNCC1CCCN1c1cccnn1 (stereo not drawn),0.6617,-14.22,11.27
CC(NC(=O)N1CCS(=O)(=O)CC1)c1ccc(F)cc1Cl (stereo not drawn),-42.39,0.5394,3.393
CSCC(=O)N1CCCC(n2ccnc2C(C)C)C1 (stereo not drawn),-36.84,-5.461,11.66
COc1ccccc1N1CCN(C(=O)c2ccoc2)CC1,-33.8,3.236,27.8
CC(C)(C)C(=O)CN1Cc2ccccc2NCCC1=O,-7.29,-7.192,12.72
CC(C)(CNC(=O)c1ccco1)CNC(=O)c1ccco1,-52.09,-1.751,23.43
CN1CC(C(=O)NCc2ccc(Br)cc2F)CC1=O (stereo not drawn),-36.83,-7.356,20.87
CC(c1cccnc1)N(C)C(=O)NCCOc1ccc(C#N)cc1 (stereo not drawn),-20.26,-8.222,-9.271
[H][C@]12CC[C@]([H])(CN(C(=O)N(C)C)C1)N(C(=O)c1cccc(N(C)C)c1)C2,-22.69,-25.96,19.86
CCc1ncc2c(n1)CN(Cc1nnc(Cc3ccccc3)o1)CC2,-,-2.781,18.91
OCCN(Cc1cccnc1)c1ncc(Br)cn1,-9.636,6.667,-3.169
CCc1cc(N(C)CCCO)n2nccc2n1,37.04,-39.71,16.75
CC(C)Nc1ccnc(-c2ccnc3c2ccn3C)n1,-118.9,14.56,1.236
Cc1nc(N)nc(N2CCOc3ccc(CO)cc3C2)c1C,11.93,-1.665,-5.312
COc1ccc(/C=C/CN2CCC3(C2)CN(C)C(=O)O3)cc1 (stereo not drawn),2.324,-16.43,23.21
Cn1cnnc1CC1CCN(Cc2nn(C)c3cccc(Cl)c23)CC1,-58.89,-18.89,-44.82
CNC(=O)c1cc2c(nc1NCC(C)C)CCN(S(C)(=O)=O)CC2,-240.9,-9.286,-5.752
CCc1nc(C2CCCN2C(=O)CCc2cccs2)no1 (stereo not drawn),-54.43,-1.292,0.9484
CC(C)CC(=O)Nc1c(-c2ccc(F)cc2)ncn1C,-8.303,-1.003,-35.56
O=C(CCN1CCCC(CO)(CC2CC2)C1)NCc1cccc(Cl)c1 (stereo not drawn),13.16,18.23,10.86
Cc1cnn(C2CN(CC(=O)NCCOc3ccccc3)C2)c1,17.81,-27.28,19.5
OC1(CN2CCCC2)COCCN(c2nccs2)C1 (stereo not drawn),-55.08,1.114,-9.416
CC(C)C1CN(c2ncccn2)CCC(=O)N1Cc1ccc(F)cc1 (stereo not drawn),0.07178,-10.53,-7.443
CCc1c(C)[nH]c(C(C)(N)CC)nc1=O.Cl (stereo not drawn),0.3391,2.526,12.32
O=C(O)c1ccc(N2CCC(Oc3ccc(Cl)cc3)CC2)nc1,-12.63,-5.474,20.51
O=C(O)C(F)(F)F.[H][C@@]12CN(S(C)(=O)=O)C[C@H](C(=O)Nc3cccnc3)[C@]1([H])CCO2,-50.72,-5.134,7.84
COc1c(CNC2CCOc3ccccc32)c(C(C)C)nn1C (stereo not drawn),25.19,0.6462,38.21
CSCC1CCN(C(=O)Cn2ncc(N3CCCCC3)cc2=O)CC1,-2.191,7.872,-8.828
Cn1cnnc1C1CCCN1C(=O)Nc1cccc(OC(F)F)c1 (stereo not drawn),0.2118,-2.276,11.84
CS(=O)(=O)CCCNC1(c2ccc(Br)cc2)CCC1,6.848,7.995,12.46
NCC1CCN(c2cnn(CCCn3cccn3)c(=O)c2)CC1,-,3.005,10.63
FC1(F)CCN(Cc2ccccn2)CC12CCN(c1ncccn1)C2.O=C(O)C(F)(F)F (stereo not drawn),-64.14,-24.06,32.57
Cc1oncc1C(=O)NCC(c1ccccc1Cl)N1CCOCC1 (stereo not drawn),-51.1,2.908,42.96
CCN(CCn1cccn1)Cc1nc(-c2ccoc2)oc1C,-22.15,-5.549,-13.11
Cn1cc(CN2CCC[C@]3(C[C@H](Oc4ncccc4F)CO3)C2)cn1.O=C(O)C(F)(F)F.O=C(O)C(F)(F)F,-0.4141,-6.728,42.35
Cc1cc(NC(=O)CN2CCCC2c2noc(C(C)C)n2)no1 (stereo not drawn),-7.907,-3.918,-8.984
CCS(=O)(=O)N1CC(=O)N(CCOc2ccccc2)CC(O)C1 (stereo not drawn),-5.377,-4.91,18.2
Fc1ccc(-c2n[nH]cc2-c2ccnc(NCCN3CCCC3)n2)cc1,43.97,49.65,-0.2543
O=C1N(CCCc2ccccc2)CCCC1(O)CN1CCC(CO)CC1 (stereo not drawn),1.297,8.522,16
CC(C)CC(=O)NS(=O)(=O)c1ccc2c(c1)OCCCO2,-7.819,5.455,-27.63
CC(=O)N1CCN(CCNc2ncc(Br)cc2C)CC1,-19.71,3.134,1.457
CCS(=O)(=O)N1CCC(c2nnc(CN3CCCCCC3)n2C)CC1,9.006,-9.18,7.771
[H][C@@]12CN(Cc3ccccn3)C[C@]1([H])OCCN2c1cccnc1,1.428,13.36,55.81
Cc1ccc(C)n1-c1ccsc1C(=O)NCC(=O)N1CCCC1,-25.78,-9.717,-15.08
O=C(c1cc(Cl)c2c(c1)OCCCO2)N(CC1CCOC1)C1CC1 (stereo not drawn),-12.57,-8.144,17.26
Cl.Cl.O=C(NCc1cncc2c1CCN(C1CCOCC1)C2)c1ccno1,-17.2,-14.69,9.701
O=C(CN1CCCC(c2ncc[nH]2)C1)NCC(F)(F)F (stereo not drawn),-33.57,-3.386,2.405
CSc1ccc(NCC(=O)NC(=O)NCC(F)(F)F)cc1F,-36.4,-30.11,-42.81

Some entries from above, unchanged:

SMILES	T. brucei	Toxoplasma	Leishmania in macrophages
O=C(c1cc(Cl)c2c(c1)OCCCO2)N(CC1CCOC1)C1CC1 (stereo not drawn)	-12.57	-8.144	17.26
CCC(=O)Nc1ccc2c(c1)CN(C(=O)c1ccco1)CC2	-15.47	-2.55	-37.51
CC(Cn1cnc2cn(C)nc2c1=O)Oc1cccnc1 (stereo not drawn)	4.844	-7.439	2.817
COc1ccc(/C=C/CN2CCC3(C2)CN(C)C(=O)O3)cc1 (stereo not drawn)	2.324	-16.43	23.21
Cc1nc(S(=O)(=O)N2CCC3(CCCCC3)C2)cn1C	1.365	-5.09	-11.17
CCc1nc(C2CCCN2C(=O)CCc2cccs2)no1 (stereo not drawn)	-54.43	-1.292	0.9484

Source: ChEMBL document CHEMBL3988442, “University of Dundee, Small-Polar-MMV Screening Library” (2021).